Measured values reported in patent publication US20050152901A1.
Results are given in words; binding and its absence hold for the method and conditions named. Binding calls can cover weak binding; strength is not graded here.

Tests used:
[1] = target: IFNAR1 on peripheral blood leucocytes / B cells of cotton-top tamarin (Sanguinus oedipus) (cotton-top tamarin (Sanguinus oedipus)); test: flow cytometry of IFNAR1 on white blood cells of treated tamarins (receptor occupancy in vivo)
[2] = target: IFNAR1 on peripheral blood leucocytes / B cells of cotton-top tamarin (Sanguinus oedipus) (cotton-top tamarin (Sanguinus oedipus)); test: flow cytometry on isolated tamarin peripheral blood leucocytes

B1: CPI-1697, humanized anti-IFNAR-1 antibody (heavy chain H3, light chain K1) (antibody, human IgG4, V domains shown)
VH: EVQLVESGGGLVQPGGSLRLSCAFSGFTLSTSGMGIGWVRQAPGKGLEWVAHWWDDDKYYNPSLKSRFTISRDTSKNTVYLQMNSLRAEDTAVYYCARNYYPYDAWFDYWGQGTLVTVS
VL: DIQMTQSPSSLSASVGDRVTITCSASSSINSNHLHWYQQKPGKAPKLLIYRTSILASGVPSRFSGSGSGTSFTLTISSLQPEDFATYYCQQGSNIPFTFGQGTKVEIKR
[1]
  binding: binds
[2]
  binding: binds
